Structures are written as SMILES. The list shows a part of the results. Further columns of the screen follow, without active or inactive calls. The list favours compounds with an active or inconclusive main result. The note in brackets gives the kind of curve behind each potency; many fits are weak.

The experiment in a line: qHTS Assay for Modulators of Lamin A Splicing. The settings on record: HeLa LMNA splicing GFP/RFP minigene ratio, 48 h. In outline:
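S3 HeLa cells stably expressing lamin A-EGFP splicing minigene plus DsRed2, 600 cells/well, 48 h compound exposure at 37C. Laser-scanning cytometry; analysed as GFP (500-530 nm)/RFP (575-640 nm) total intensity ratio; 0.5% DMSO vehicle.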

The mark [1] stands for this setting: measured here: GFP splicing reporter channel.
The mark [2] stands for this setting: measured here: RFP viability control channel.

Turning to `O=C(Cc1ccccc1)Nc1ccccc1N1CCN(c2ccccc2)CC1`, the AC50 was 11.2 µM [rising, single point] under setting [1] and 15.8 µM [rising, single point] under setting [2].

For `COc1ccc(-c2nc3sc(CCNC(=O)c4cc(Cl)ccc4OC)c(C)n3n2)cc1`, the AC50 under setting [2] was 31.6 µM [rising, single point].

On to `CSc1cccc(NC(=O)COc2ccccc2C)c1`, for which, under setting [2], the half-maximal activity concentration (AC50) was 3.16 µM [rising, full curve, poor fit].

On to `CC1CN(S(=O)(=O)c2ccc(C(=O)NCCCn3ccnc3)cc2)CC(C)O1` (stereo unspecified), for which the concentration at half-maximal activity (AC50) was 1 µM [rising, full curve, poor fit] under setting [1] and 0.891 µM [rising, full curve] under setting [2].

Take `Cc1oc2c(cc(NS(=O)(=O)c3ccc4c5c(cccc35)C(=O)N4)c3ccccc32)c1C(=O)OC(C)C`: under setting [1], the AC50 was 15.8 µM [falling, single point].

Regarding `Cc1ccccc1N(C(=O)c1csnn1)C(C(=O)NC(C)(C)C)c1cccs1` (stereo unspecified), the AC50 under setting [1] was 35.5 µM [falling, single point].

`CCCc1nc(SCC(=O)Nc2cc(C)on2)c2ccccc2n1`: under setting [1], the AC50 is 8.91 µM [rising, single point].

Turning to `CC(=O)N(Cc1cc2ccc(C)c(C)c2n2nnnc12)C1CCCC1`, under setting [2], the AC50 is 22.4 µM [rising, single point].

Take `CN(Cc1ccccc1)S(=O)(=O)c1ccc(F)c(C(=O)Nc2cccc(Cl)c2Cl)c1`: under setting [2], the concentration at half-maximal activity (AC50) is 17.8 µM [rising, single point].

On to `C=CCN=C1CCCc2c1[nH]c1ccc(C)cc21`, for which, under setting [2], the AC50 was 0.891 µM [rising, single point].

Regarding `O=C(NCc1cccs1)c1nc2c(nnn2Cc2ccccc2Cl)c(=O)[nH]1`, the AC50 reads like this: under setting [1], 11.2 µM [falling, partial curve]; under setting [2], 28.2 µM [falling, single point].

`CCOc1ccc(S(=O)(=O)Nc2cccc(OC)c2)cc1`: the AC50 under setting [2] is 31.6 µM [rising, single point].

As to `COc1ccc(O)c(/C=N/NC(=O)c2c(C)nnn2-c2nonc2N)c1`, the AC50 under setting [1] was 35.5 µM [falling, partial curve].

`Cc1cc(OC(=O)c2ccco2)c(Sc2ccccc2[N+](=O)[O-])c(=O)o1`: the AC50 by setting is: under setting [1], 0.0141 µM [falling, full curve, poor fit]; under setting [2], 0.01 µM [falling, full curve, poor fit].

On to `CCOC(=O)c1c(NC(=O)c2ccc(S(=O)(=O)N(CCOC)CCOC)cc2)sc2c1CC(C)(C)NC2(C)C`, for which the AC50 under setting [1] is 7.08 µM [falling, partial curve].

For `Cn1c(N2CCCC2)nc2c1c(=O)n(Cc1ccc(Cl)cc1)c(=O)n2C`, the AC50 under setting [1] was 10 µM [rising, partial curve] and the AC50 under setting [2] is 14.1 µM [rising, single point].

As for `CCOc1ccc(C2Sc3ccccc3NC3=C2C(=O)OC3)cc1` (stereo unspecified), under setting [2], the AC50 is 31.6 µM [rising, single point].

With `On1c(-c2ccc(Cl)cc2)nc2ccccc21`, the AC50 by setting is: under setting [1], 28.2 µM [falling, single point]; under setting [2], 14.1 µM [falling, single point].

For the compound `O=C(CCSc1nc(-c2ccco2)cc(C(F)(F)F)n1)N1CCN(c2ccccc2)CC1`, under setting [2], the AC50 was 8.91 µM [rising, partial curve].

Consider `O=C(CSc1ncnc2c1cnn2-c1ccccc1)Nc1ccccc1`, for which the AC50 reads like this: under setting [1], 15.8 µM [rising, single point]; under setting [2], 14.1 µM [rising, partial curve].

For `CCn1cc(C(=O)NCc2ccccc2)c(=O)c2cc(F)c(N3CCN(C(=O)c4ccco4)CC3)cc21`, the AC50 runs as follows: under setting [1], 35.5 µM [rising, single point]; under setting [2], 31.6 µM [rising, single point].

In the case of `Cc1nnc2c(NC(C)C)nc3ccccc3n12`, the AC50 is, setting by setting: under setting [1], 10 µM [rising, partial curve, poor fit]; under setting [2], 14.1 µM [rising, partial curve].

In the case of `CC(=O)c1c(N2CCOCC2)[nH]c(-c2ccccc2)nc1=S`, under setting [1], the AC50 was 15.8 µM [rising, single point].

For `N#Cc1ccc(NC(=O)Nc2cccc(C#N)c2)cc1`, the AC50 under setting [1] is 35.5 µM [rising, single point].

Regarding `O=C(COC(=O)C1CC1)Nc1ccc2[nH]c(=O)[nH]c2c1`, the AC50 reads like this: under setting [1], 0.316 µM [rising, full curve, poor fit]; under setting [2], 4.47 µM [rising, full curve, poor fit].

Turning to `Nc1cc(-c2ccccc2)nn1Cc1ccc(Cl)cc1`, the AC50 reads like this: under setting [1], 1 µM [rising, full curve, poor fit]; under setting [2], 17.8 µM [rising, partial curve, poor fit].

Regarding `CCOC(=O)c1c(C)[nH]c(C)c1C(=O)CSc1nc2ccccc2c(=O)n1-c1ccc(C)cc1`, the AC50 is, setting by setting: under setting [1], 17.8 µM [rising, single point]; under setting [2], 25.1 µM [rising, partial curve].

Take `N#CC1=CN(Cc2ccccc2)C=C(/C=N/Nc2ccccc2)C1`: the AC50 under setting [1] was 35.5 µM [rising, partial curve, poor fit] and the AC50 under setting [2] was 31.6 µM [rising, single point].

`CCOC(=O)c1c(NC(=O)CSc2nnc(-c3cccnc3)n2Cc2ccco2)sc(C)c1C`: under setting [2], the AC50 was 12.6 µM [rising, single point].

With `CCCc1c(OCCCCc2nn[nH]n2)ccc(C(C)=O)c1O`, the half-maximal activity concentration (AC50) by setting is: under setting [1], 12.6 µM [rising, partial curve, poor fit]; under setting [2], 11.2 µM [rising, partial curve].

`Cc1occc1C(=O)Nc1sc2c(c1C(N)=O)CCCCC2`: under setting [2], the AC50 is 14.1 µM [rising, partial curve, poor fit].

With `Cn1c(Cl)cnc1C1CC(=O)c2cc(Cl)ccc2O1` (stereo unspecified), under setting [1], the AC50 is 35.5 µM [falling, single point].

Regarding `O=C1CC(N2CCN(c3ccc(F)cc3)CC2)C(=O)N1c1ccccc1` (stereo unspecified), the AC50 under setting [2] was 3.55 µM [falling, partial curve, poor fit].

Consider `COc1cc(/C=N/NC(=O)c2ccc3ccccc3c2)ccc1Oc1ccc([N+](=O)[O-])cn1`, for which the AC50 under setting [2] was 22.4 µM [rising, single point].

Regarding `O=[N+]([O-])c1ccc(Oc2ccc(-c3cnc4ccccc4n3)cc2[N+](=O)[O-])cc1`, the AC50 under setting [2] was 2.82 µM [rising, full curve].

Regarding `CC(C)CCNC(=O)c1ccc2c(c1)NC(=O)C(CS(=O)(=O)Cc1cccc(Br)c1)N2` (stereo unspecified), the AC50 under setting [1] was 22.4 µM [falling, partial curve] and the half-maximal activity concentration (AC50) under setting [2] is 35.5 µM [falling, single point].

Turning to `COc1ccc(-c2nc(-c3cccs3)c(-c3cccs3)[nH]2)cc1OC`, the AC50 is 35.5 µM [rising, single point] under setting [1] and 31.6 µM [rising, single point] under setting [2].

For the compound `O=C(Nc1ccc(Br)cn1)c1ccc([N+](=O)[O-])o1`, the AC50 under setting [1] was 7.08 µM [falling, full curve] and the AC50 under setting [2] was 12.6 µM [falling, partial curve].

For the compound `Cc1cc(NC(=O)c2cccc([N+](=O)[O-])c2)n(-c2ccccc2)n1`, the AC50 was 22.4 µM [rising, single point] under setting [1] and 17.8 µM [rising, single point] under setting [2].

On to `O=C(C1CCN(S(=O)(=O)c2ccc(Br)s2)CC1)N1CCc2ccccc21`, for which the AC50 is 5.01 µM [rising, partial curve] under setting [1] and 14.1 µM [rising, partial curve] under setting [2].

Turning to `CC(C(=O)NCCN1CCOCC1)(c1ccccc1)c1ccccc1`, the AC50 under setting [2] was 0.0112 µM [falling, full curve, poor fit].

`COc1ccccc1/C=N/NC(=O)c1csc(C)c1C`: the AC50 under setting [2] was 0.0178 µM [falling, full curve, poor fit].

`O=C(NC(=S)N1CCN(Cc2ccccc2)CC1)c1cccnc1`: the AC50 under setting [2] was 0.0141 µM [rising, full curve, poor fit].

In the case of `CCn1c(=N)c(S(=O)(=O)c2ccc(C)cc2)cc2c(=O)n3ccccc3nc21`, the AC50 under setting [2] was 0.631 µM [falling, full curve, poor fit].

On to `O=C(NC1CCCCC1)N1CCC(c2nc3ccc(Cl)cc3[nH]2)CC1`, for which the AC50 under setting [2] is 35.5 µM [rising, single point].

On to `Cc1nn(S(=O)(=O)c2cccc([N+](=O)[O-])c2)c(C)c1Br`, for which the AC50 under setting [2] was 14.1 µM [rising, single point].

For the compound `O=C1C2C(C(=O)N1/N=C/c1cc(Br)cc([N+](=O)[O-])c1O)C1C=CC2C12CC2` (stereo unspecified), the AC50 under setting [2] is 11.2 µM [rising, single point].

Take `COc1ccccc1N1CCN(C(c2ccccc2Cl)c2nnnn2C(C)(C)C)CC1` (stereo unspecified): the AC50 reads like this: under setting [1], 35.5 µM [rising, single point]; under setting [2], 35.5 µM [rising, single point].

On to `CCC1CCCCN1CCCNC(=O)c1cc2c(Cl)nc3ccccc3c2s1` (stereo unspecified), for which, under setting [2], the AC50 was 14.1 µM [rising, partial curve, poor fit].

In the case of `Cc1ccc(-n2nc3c(c2NC(=O)/C=C\c2ccc4c(c2)OCO4)CSC3)cc1`, under setting [2], the AC50 was 12.6 µM [rising, partial curve, poor fit].

Take `COc1ccc(CCNCC(O)Cn2ccc3ccccc32)cc1OC` (stereo unspecified): under setting [2], the AC50 was 0.00316 µM [falling, full curve, poor fit].

For the compound `Cc1ccc(CNC(=O)c2ccc3c(c2)nc(C)n3-c2cc(C)cc(C)c2)cc1`, under setting [1], the AC50 was 35.5 µM [falling, partial curve].

For the compound `COc1ccc(-n2nnnc2SCC(=O)c2ccc(O)c(O)c2)cc1`, the AC50 under setting [1] is 35.5 µM [rising, single point] and the AC50 under setting [2] is 35.5 µM [rising, single point].

Consider `C=CCNC(=S)NNc1ncnc2sc3c(c12)CC(C)(C)OC3`, for which the AC50 under setting [2] was 11.2 µM [falling, single point].

For `CCn1c(SCC(=O)Nc2nccs2)nnc1-c1ccc(S(=O)(=O)N2CCCCC2)cc1`, the AC50 under setting [2] was 12.6 µM [rising, partial curve].
